According to the supplement of paper PMC7238544:
± gives the standard deviation of the averaged measurements. The list shows a part of the results. The data scatter; read single values as rough.

Columns and labels:
[1] = test system: hAMSC donor 1; assay: Hoechst total cell count ratio vs vehicle control; higher = more cells (less toxicity)
[2] = test system: hAMSC donor 2; assay: as above
[3] = test system: hAMSC donor 1; assay: transgenic luciferase activity (RLU/mg protein) fold change vs vehicle control (ratio); higher = more transgene expression
[4] = test system: hAMSC donor 2; assay: as above
[5] = test system: hAMSC donor 1; assay: transfection efficiency (EGFP+ cells / Hoechst count) fold change vs vehicle control (ratio); hAMSC are human adipose-derived mesenchymal stem cells given an EGFP-luciferase plasmid by lipofection; higher = enhanced transfection
[6] = test system: hAMSC donor 2; assay: as above
[7] = priming compound concentration 0.2 µM
[8] = priming compound concentration 1.7 µM
[9] = priming compound concentration 13 µM

Row | Compound | Hoechst total cell count ratio [1, 7] | Hoechst total cell count ratio [1, 8] | Hoechst total cell count ratio [1, 9] | Hoechst total cell count ratio [2, 7] | Hoechst total cell count ratio [2, 8] | Hoechst total cell count ratio [2, 9] | transgenic luciferase activity [3, 9] | transgenic luciferase activity [4, 7] | transgenic luciferase activity [4, 8] | transgenic luciferase activity [4, 9] | transfection efficiency [5, 7] | transfection efficiency [5, 8] | transfection efficiency [5, 9] | transfection efficiency [6, 7] | transfection efficiency [6, 8] | transfection efficiency [6, 9] | transgenic luciferase activity [3, 8]
1 | COc1cc(C)c(/C=C/C(C)=C/C=C/C(C)=C/C(=O)O)c(C)c1C [Acitretin] | 1.19 ± 0.18 | 1.39 ± 0.46 | 1.32 ± 0.28 | 1.03 ± 0.091 | 0.942 ± 0.059 | 0.759 ± 0.13 | 0.613 ± 0.22 | 0.676 ± 0.13 | 0.684 ± 0.071 | 0.666 ± 0.2 | 0.862 ± 0.13 | 1.25 ± 0.34 | 0.808 ± 0.44 | 0.98 ± 0.076 | 1.05 ± 0.071 | 0.882 ± 0.14 | 
2 | Cc1cnc(NC(=O)C2=C(O)c3ccccc3S(=O)(=O)N2C)s1 [Meloxicam] | 1.21 ± 0.17 | 1.15 ± 0.33 | 1.34 ± 0.064 | 1.03 ± 0.069 | 1.25 ± 0.16 | 1.12 ± 0.11 | 0.512 ± 0.031 | 0.681 ± 0.069 | 0.967 ± 0.049 | 0.46 ± 0.11 | 1 ± 0.44 | 1.6 ± 0.31 | 1.09 ± 0.079 | 0.974 ± 0.079 | 0.957 ± 0.047 | 0.87 ± 0.16 | 
3 | NS(=O)(=O)c1cc2c(cc1Cl)NCNS2(=O)=O [Hydrochlorothiazide] | 1.33 ± 0.17 | 1.54 ± 0.028 | 1.44 ± 0.21 | 0.967 ± 0.048 | 0.989 ± 0.025 | 0.86 ± 0.087 | 0.612 ± 0.041 | 0.673 ± 0.17 | 0.842 ± 0.086 | 0.747 ± 0.21 | 0.811 ± 0.095 | 1.13 ± 0.41 | 0.688 ± 0.28 | 1.14 ± 0.06 | 0.95 ± 0.091 | 1.09 ± 0.18 | 
4 | CC(=O)SCC(Cc1ccccc1)C(=O)NCC(=O)OCc1ccccc1 (configuration not stated) [Racecadotril] | 1.05 ± 0.14 | 1.17 ± 0.05 | 1.11 ± 0.18 | 1.52 ± 0.53 | 1.37 ± 0.056 | 2.13 ± 0.36 |  | 0.407 ± 0.025 | 0.266 ± 0.0087 | 0.107 ± 0.05 | 0.969 ± 0.33 | 1.41 ± 0.11 | 0.923 ± 0.49 | 0.856 ± 0.17 | 1.03 ± 0.041 | 1.04 ± 0.31 | 1.47 ± 0.21
5 | CC(=O)[C@@]1(O)CC[C@H]2[C@@H]3C[C@H](C)C4=CC(=O)C=C[C@]4(C)[C@@]3(F)[C@@H](O)C[C@@]21C [Fluorometholone] | 1.61 ± 0.11 | 1.76 ± 0.077 | 1.09 ± 0.03 | 1.15 ± 0.075 | 1.01 ± 0.035 | 0.753 ± 0.057 | 15.8 ± 0.42 | 3.79 ± 1 | 3.05 ± 0.83 | 3.77 ± 1.5 | 1.33 ± 0.15 | 1.13 ± 0.054 | 2.36 ± 0.3 | 1.41 ± 0.17 | 1.74 ± 0.3 | 1.97 ± 0.37 | 
6 | O=C(O)COCCN1CCN(C(c2ccccc2)c2ccc(Cl)cc2)CC1 (configuration not stated) [Cetirizine] | 1.27 ± 0.069 | 1.56 ± 0.12 | 1.49 ± 0.18 | 1.06 ± 0.12 | 1.22 ± 0.071 | 1.13 ± 0.12 | 0.913 ± 0.41 | 0.741 ± 0.071 | 0.626 ± 0.03 | 0.577 ± 0.11 | 0.965 ± 0.098 | 1.08 ± 0.36 | 0.981 ± 0.18 | 0.888 ± 0.051 | 0.818 ± 0.09 | 0.791 ± 0.078 | 
7 | Nc1cc(N2CCCCC2)nc(N)[n+]1[O-] [Minoxidil] | 1.28 ± 0.057 | 1.66 ± 0.053 | 1.27 ± 0.079 | 1.07 ± 0.044 | 1.09 ± 0.035 | 1.21 ± 0.15 | 0.622 ± 0.42 | 0.811 ± 0.19 | 0.89 ± 0.077 | 0.763 ± 0.15 | 0.961 ± 0.065 | 1.1 ± 0.086 | 0.89 ± 0.25 | 1.17 ± 0.1 | 1.05 ± 0.049 | 0.871 ± 0.085 | 
